Measurements taken from patent publication US8153376.
Results are given in words; binding and its absence hold for the method and conditions named. For some of these results: Binding seen in cells or lysates may run through a third protein. Some entries that bind do so weakly or less than the wild type.

Protein sequences, listed by entry. Tags and fused reporters are not part of them. Residues count along the entry.
UniProt Q9Z1Y3, residues 160-906: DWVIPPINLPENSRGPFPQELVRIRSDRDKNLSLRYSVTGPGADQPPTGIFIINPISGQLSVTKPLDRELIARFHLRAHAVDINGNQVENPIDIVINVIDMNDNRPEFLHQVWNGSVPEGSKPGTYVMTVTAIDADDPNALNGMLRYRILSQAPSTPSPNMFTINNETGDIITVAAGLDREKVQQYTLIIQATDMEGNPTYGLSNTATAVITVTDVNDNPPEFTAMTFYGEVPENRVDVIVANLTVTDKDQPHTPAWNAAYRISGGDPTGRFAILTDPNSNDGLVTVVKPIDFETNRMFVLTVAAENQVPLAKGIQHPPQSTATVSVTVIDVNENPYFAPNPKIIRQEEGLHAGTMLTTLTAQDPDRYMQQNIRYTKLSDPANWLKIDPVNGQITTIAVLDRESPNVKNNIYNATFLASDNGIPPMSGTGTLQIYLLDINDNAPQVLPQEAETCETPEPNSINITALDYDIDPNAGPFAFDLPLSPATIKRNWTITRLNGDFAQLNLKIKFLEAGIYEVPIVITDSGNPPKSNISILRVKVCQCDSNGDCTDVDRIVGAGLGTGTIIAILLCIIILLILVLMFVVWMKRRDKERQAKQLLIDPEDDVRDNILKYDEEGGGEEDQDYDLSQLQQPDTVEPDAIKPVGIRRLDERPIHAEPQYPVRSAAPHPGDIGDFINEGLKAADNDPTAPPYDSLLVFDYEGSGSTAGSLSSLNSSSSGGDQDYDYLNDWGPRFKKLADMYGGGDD
UniProt P19022, residues 160-906: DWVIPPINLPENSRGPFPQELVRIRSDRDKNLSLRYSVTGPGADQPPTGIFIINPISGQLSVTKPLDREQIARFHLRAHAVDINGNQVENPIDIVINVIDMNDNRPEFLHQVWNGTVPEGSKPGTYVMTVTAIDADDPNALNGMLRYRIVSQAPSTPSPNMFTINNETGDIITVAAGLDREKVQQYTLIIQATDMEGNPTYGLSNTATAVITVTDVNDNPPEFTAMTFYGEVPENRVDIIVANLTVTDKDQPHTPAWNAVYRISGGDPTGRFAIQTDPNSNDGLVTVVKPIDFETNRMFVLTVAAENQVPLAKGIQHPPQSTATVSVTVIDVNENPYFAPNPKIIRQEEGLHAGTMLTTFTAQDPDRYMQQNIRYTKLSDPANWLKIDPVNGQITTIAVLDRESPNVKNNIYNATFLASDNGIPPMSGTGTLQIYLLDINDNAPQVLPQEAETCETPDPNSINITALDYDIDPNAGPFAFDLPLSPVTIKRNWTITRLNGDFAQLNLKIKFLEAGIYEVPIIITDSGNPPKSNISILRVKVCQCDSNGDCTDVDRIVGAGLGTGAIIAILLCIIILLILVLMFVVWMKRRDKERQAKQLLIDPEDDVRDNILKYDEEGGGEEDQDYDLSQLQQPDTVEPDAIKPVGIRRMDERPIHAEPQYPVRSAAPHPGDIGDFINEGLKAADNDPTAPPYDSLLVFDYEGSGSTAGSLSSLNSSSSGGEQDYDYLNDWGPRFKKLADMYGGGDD

Experiments:
[1] = biological target: N-cadherin, rat, endogenous in neonatal rat cardiac myocytes (rat) (UniProt Q9Z1Y3); experiment: co-immunoprecipitation, summary sentence of Example 1
[2] = biological target: N-cadherin, rat, endogenous in neonatal rat cardiac myocytes (rat) (UniProt Q9Z1Y3); experiment: co-immunoprecipitation (IP LIMP-2, immunoblot cadherin), FIG. 7a
[3] = biological target: N-cadherin, rat, endogenous in neonatal rat cardiac myocytes (rat) (UniProt Q9Z1Y3); experiment: co-immunoprecipitation from neonatal rat cardiac myocyte protein (IP anti-LIMP-2, blot cadherin)
[4] = biological target: cadherin, human, in myocardial tissue sections (human) (UniProt P19022); experiment: double immunofluorescence and confocal microscopy of human myocardium (co-localisation at the intercalated disc)

Binder | binding [1] | binding [2] | binding [3] | binding [4]
lysosomal integral membrane protein-2 (LIMP-2), rat, endogenous in neonatal rat cardiac myocytes (protein, UniProt P27615 2-478, looked up) ARCCFYTAGTLSLLLLVTSVTLLVARVFQKAVDQTIEKNMVLQNGTKVFDSWEKPPLPVYIQFYFFNVTNPEEILQGEIPLLEEVGPYTYRELRNKANVQFGENGTTISAVTNKAYIFERNQSVGDPTVDLIRTINIPLLTVVEMAQQPFLREIIEAMLKAYQQTLFVTHTVHELLWGYKDEVLSLVHIFRPDVSPNFGLFYERNGTNDGEYVFLTGEDNYLNFTKIVEWNGKTSLDWWTTDTCNMINGTDGDSFHPLISKDETLYIFPSDFCRSVYITFSSFENVEGLPAFRYKVPAEILANSSENAGFCIPEGNCMDAGVLNVSICKNGAPIIMSFPHFYQADEKFVSAIKGMRPNKEEHESFVDINPLTGIILRGAKRFQINTYVKKLDDFVETGNIRTMVFPVMYLNESVLIDKETASQLKSVINTTLIVTNIPYIIMALGVFFGLIFTWLACRGQGSTDEGTADERAPLIRT | binds | binds | binds | –
LIMP-2, human, in myocardial tissue sections (protein, UniProt Q14108 1-478, looked up) MGRCCFYTAGTLSLLLLVTSVTLLVARVFQKAVDQSIEKKIVLRNGTEAFDSWEKPPLPVYTQFYFFNVTNPEEILRGETPRVEEVGPYTYRELRNKANIQFGDNGTTISAVSNKAYVFERDQSVGDPKIDLIRTLNIPVLTVIEWSQVHFLREIIEAMLKAYQQKLFVTHTVDELLWGYKDEILSLIHVFRPDISPYFGLFYEKNGTNDGDYVFLTGEDSYLNFTKIVEWNGKTSLDWWITDKCNMINGTDGDSFHPLITKDEVLYVFPSDFCRSVYITFSDYESVQGLPAFRYKVPAEILANTSDNAGFCIPEGNCLGSGVLNVSICKNGAPIIMSFPHFYQADERFVSAIEGMHPNQEDHETFVDINPLTGIILKAAKRFQINIYVKKLDDFVETGDIRTMVFPVMYLNESVHIDKETASRLKSMINTTLIITNIPYIIMALGVFFGLVFTWLACKGQGSMDEGTADERAPLIRT | – | – | – | binds
